# Reference: the supplement of paper PMC12067093, “Discovery and optimisation of a covalent ligand for TRIM25 and its application to targeted protein ubiquitination” (Chemical Science, 2025)
# Some of the results follow.
# Compound: Cc1cc(ccc1-c1ccccc1)C(=O)N1CCCN(CC1)C(=O)CCl [compound 10]
# Experiment: probe-labelled cysteine peptide fold change vs DMSO (competition) (log2 fold change); higher = less target engagement (more negative = stronger competition)
# Conditions: THP-1, incubation time: 4 h
# 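Note: competitive profiling in live THP-1 cells: cysteine peptides tagged with an iodoacetamide desthiobiotin (IA-DTB) probe, intensity after compound treatment relative to DMSO-treated cells.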
Target,probe-labelled cysteine peptide fold change (10 µM),probe-labelled cysteine peptide fold change (50 µM)
PSMA7_O14818_91_ARVECQSHR (UniProt O14818),-0.0556,0.107
PSMD6_Q15008_266_QYLFSLYECR (UniProt Q15008),0.133,0.553
PTK2B_Q14289_650_LPKPDLCPPVLYTLMTR (UniProt Q14289),-0.0544,-0.0157
PSMD1_Q99460_633_TPEQCPSVVSLLSESYNPHVR (UniProt Q99460),-0.0347,-0.0178
PTRHD1_Q6GMV3_118_NIDHMLWLEQPENIATCIALRPYPK (UniProt Q6GMV3),-0.0248,-0.276
PSMD1_Q99460_659_YGAAMALGICCAGTGNK (UniProt Q99460),-0.109,-0.0185
PTPRC_P08575_400_TDFGSPGEPQIIFCR (UniProt P08575),-0.00947,0.274
PTPRJ_Q12913_1149_CEEYWPSK (UniProt Q12913),-0.108,0.15
PSMD1_Q99460_898_VLTMPETCR (UniProt Q99460),-0.0254,0.0271
PSMC3_P17980_240_ACAAQTK (UniProt P17980),-0.0208,-0.0025
PTTG1IP_P53801_81_ACLDYPVTSVLPPASLCK (UniProt P53801),-0.00573,0.0791
PTPRC_P08575_1261_QDANCVNPLGAPEKLPEAK (UniProt P08575),-0.187,-0.881
PTPMT1_Q8WUK0_81_FLCNSSQEWK (UniProt Q8WUK0),0.0793,0.113
PTGES3_Q15185_75_SILCCLR (UniProt Q15185),0.00638,-0.0974
PTPA_Q15257_103_AGHCAPSEAIEK (UniProt Q15257),-0.17,-0.477
PTPN12_Q05209_235_YQEHEDVPICIHCSAGCGR (UniProt Q05209),0.255,0.000567
PTCD3_Q96EY7_551_DKHPPELQVAFADCAADIK (UniProt Q96EY7),-0.203,-0.185
PTK2B_Q14289_395_RSHLSESCSIESDIYAEIPDETLR (UniProt Q14289),0.161,-0.122
PTPN6_P29350_171_VMCEGGR (UniProt P29350),-0.121,0.0139
PUF60_Q9UHX1_129_ALAIMCR (UniProt Q9UHX1),0.0582,0.241
PTCD2_Q8WV60_67_VAVACNLSGTK (UniProt Q8WV60),-0.105,-0.0657
PUM1_Q14671_980_CIECVQPQSLQFIIDAFK (UniProt Q14671),0.213,-0.0133

# Some of the entries above, reformatted.
Target | probe-labelled cysteine peptide fold change (10 µM) | probe-labelled cysteine peptide fold change (50 µM)
PTPRC_P08575_1261_QDANCVNPLGAPEKLPEAK (UniProt P08575) | -0.187 | -0.881
PTPMT1_Q8WUK0_81_FLCNSSQEWK (UniProt Q8WUK0) | 0.0793 | 0.113
PTCD3_Q96EY7_551_DKHPPELQVAFADCAADIK (UniProt Q96EY7) | -0.203 | -0.185
PUM1_Q14671_980_CIECVQPQSLQFIIDAFK (UniProt Q14671) | 0.213 | -0.0133

# The results go on:

Target,probe-labelled cysteine peptide fold change (10 µM),probe-labelled cysteine peptide fold change (50 µM)
PSMA6_P60900_161_CDPAGYYCGFK (UniProt P60900),0.189,-0.00591
PSMB2_P49721_91_NLADCLR (UniProt P49721),-0.12,-0.218
PSMC6_P62333_228_DHQPCIIFMDEIDAIGGRR (UniProt P62333),-0.172,-0.306
PURB_Q96QR8_238_FFFDVGCNK (UniProt Q96QR8),0.237,0.012
PSME1_Q06323_22_VDVFREDLCTK (UniProt Q06323),-0.172,-0.309
PSMD7_P51665_116_YCPNSVLVIIDVKPK (UniProt P51665),0.0412,0.00674
PSMG1_O95456_169_NMQITILTCR (UniProt O95456),0.0336,-0.278
PTK2B_Q14289_972_LAQQNAVTSLSEECKR (UniProt Q14289),-0.0215,-0.241
PSMC3_P17980_400_AVCVEAGMIALR (UniProt P17980),-0.0751,0.131
PSME2_Q9UL46_91_CGFLPGNEK (UniProt Q9UL46),-0.3,-0.207
PTCD2_Q8WV60_355_FDEIYGTLHITGQVTTDSLDAVLCHTPR (UniProt Q8WV60),-0.196,0.084
PTCD1_O75127_695_EADDGCALGGR (UniProt O75127),-0.438,-0.792
PTPN1_P18031_324_CREFFPNHQWVK (UniProt P18031),-0.435,-0.597
PTER_Q96BW5_38+43_TLTHEHLAMTFDCCYCPPPPCQEAISK (UniProt Q96BW5),-0.244,-0.944
PSMD13_Q9UNM6_49_KLWHQLTLQVLDFVQDPCFAQGDGLIK (UniProt Q9UNM6),-0.314,0.0276
PTGFRN_Q9P2B2_429_VPGFADDPTELACR (UniProt Q9P2B2),-0.0378,0.145
PTPRF_P10586_1891_TQRPAMVQTEDQYQLCYR (UniProt P10586),-0.0256,-0.148
PTPN1_P18031_344_EETQEDKDCPIKEEK (UniProt P18031),-0.593,-1.57
PTPRC_P08575_344_FQCGNMIFDNK (UniProt P08575),-0.261,-0.0286
PTPRF_P10586_207_YECVATNSAGTR (UniProt P10586),-0.101,-0.45
PTER_Q96BW5_36_TLTHEHLAMTFDCCYCPPPPCQEAISK (UniProt Q96BW5),-0.00632,-0.855
PTPRJ_Q12913_1039_QQADSNCGFAEEYEDLK (UniProt Q12913),-0.207,-0.0847

Target,probe-labelled cysteine peptide fold change (10 µM),probe-labelled cysteine peptide fold change (50 µM)
PTDSS1_P48651_419_TYSECEDGTYSPEISWHHR (UniProt P48651),0.122,0.398
PTPN11_Q06124_490_GVDCDIDVPK (UniProt Q06124),-0.00676,0.0192
PSMD13_Q9UNM6_114_SSDEAVILCK (UniProt Q9UNM6),0.0347,0.0864
PSMC6_P62333_228_DHQPCIIFMDEIDAIGGR (UniProt P62333),-0.0612,0.106
PTPN7_P35236_204_CVHYWPTEEETYGPFQIR (UniProt P35236),-0.0465,-0.364
PSMG2_Q969U7_168+178_CIPEIDDSEFCIR (UniProt Q969U7),0.0824,0.133
PTPN7_P35236_62_SLGAVEPICSVNTPR (UniProt P35236),-0.192,-0.402
PTER_Q96BW5_164_CGIIGEIGCSWPLTESERK (UniProt Q96BW5),0.193,-0.372
PSME3_P61289_92_RLDECEEAFQGTK (UniProt P61289),-0.283,-0.427
PTDSS1_P48651_347_QYYAYLTDTQCK (UniProt P48651),0.204,0.447
PSMD12_O00232_108+109_MVQQCCTYVEEITDLPIK (UniProt O00232),-0.122,0.031
PSMD9_O00233_59_GIGMNEPLVDCEGYPR (UniProt O00233),-0.202,-0.434
PSME4_Q14997_637_CCPEESLK (UniProt Q14997),-0.0784,-0.446
PSMD5_Q16401_412_GISSQPFPELHCAALK (UniProt Q16401),-0.00286,-0.0414
PSME4_Q14997_1267_EWESSCFVEK (UniProt Q14997),-0.154,-0.057
PSMC5_P62195_209_AVAHHTDCTFIR (UniProt P62195),0.191,-0.0939
PSTPIP1_O43586_242_NALWVHSNQLSMQCVK (UniProt O43586),0.123,0.494
PURA_Q00577_272_FGHTFCK (UniProt Q00577),-0.22,-0.422
PSMD4_P55036_87_ITFCTGIR (UniProt P55036),0.00806,0.0522
PTPRF_P10586_615_VMCVSMGSTTVR (UniProt P10586),0.181,-0.763
PTER_Q96BW5_289_LLVEEGCEDR (UniProt Q96BW5),-0.0539,0.0311
PSME4_Q14997_798_LQHCGDGK (UniProt Q14997),0.19,0.198

Target,probe-labelled cysteine peptide fold change (10 µM),probe-labelled cysteine peptide fold change (50 µM)
PSMB10_P40306_17_GGFSFENCQR (UniProt P40306),-0.213,-0.383
PTPN1_P18031_231_SGTFCLADTCLLLMDK (UniProt P18031),0.0304,0.0773
PTPN9_P43378_567_AFSIQTPEQYYFCYK (UniProt P43378),0.197,-0.00044
PTRH1_Q86Y79_179_VGIGRPAHPEAVQAHVLGCFSPAEQELLPLLLDR (UniProt Q86Y79),0.109,-0.55
PSMD4_P55036_9_VLESTMVCVDNSEYMR (UniProt P55036),-0.0498,-0.0632
PUM2_Q8TB72_983_ALLIDEVCCQNDGPHSALYTMMK (UniProt Q8TB72),-0.176,-0.303
PSME3_P61289_92_RRLDECEEAFQGTK (UniProt P61289),-0.145,-0.293
PTPN1_P18031_226_SGTFCLADTCLLLMDKR (UniProt P18031),-0.0686,-0.452
PSMA4_P25789_107_YLLQYQEPIPCEQLVTALCDIK (UniProt P25789),0.268,0.644
PSMA4_P25789_163_ATCIGNNSAAAVSMLK (UniProt P25789),0.0539,-0.0837
PSMD6_Q15008_188_VYQGLYCVAIR (UniProt Q15008),0.27,0.332
PTPN23_Q9H3S7_1466_HGVPPPCKPLASASISQK (UniProt Q9H3S7),-0.222,-0.866
PSMA4_P25789_74_LNEDMACSVAGITSDANVLTNELR (UniProt P25789),-0.101,0.275
PTPN23_Q9H3S7_116_SVAHEDIKYEQACILYNLGALHSMLGAMDKR (UniProt Q9H3S7),0.144,-0.327
PTCD3_Q96EY7_260_NEHSYCTMIR (UniProt Q96EY7),-0.0913,0.011
PSMD2_Q13200_139_FAADIISVLAMTMSGERECLK (UniProt Q13200),0.00792,-0.301
PSMC4_P43686_210_QIGIDPPRGVLMYGPPGCGK (UniProt P43686),-0.144,-0.356
PSMD1_Q99460_703_QGALIASALIMIQQTEITCPK (UniProt Q99460),0.0193,0.0986
PSMB1_P20618_224_ICIVTK (UniProt P20618),0.167,-0.0433
